The results in this text go back to publication PMC5078655.

The chains behind the UniProt entries cited, without tags or fusion partners. Residues count along the entry.
UniProt Q15848, residues 19-244: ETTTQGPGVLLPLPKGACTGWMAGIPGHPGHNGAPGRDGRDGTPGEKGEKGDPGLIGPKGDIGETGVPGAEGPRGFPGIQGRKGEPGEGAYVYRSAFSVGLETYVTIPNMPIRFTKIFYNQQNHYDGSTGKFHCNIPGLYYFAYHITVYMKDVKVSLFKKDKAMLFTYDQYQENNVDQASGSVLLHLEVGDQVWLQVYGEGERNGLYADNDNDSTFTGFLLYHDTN
UniProt Q04206: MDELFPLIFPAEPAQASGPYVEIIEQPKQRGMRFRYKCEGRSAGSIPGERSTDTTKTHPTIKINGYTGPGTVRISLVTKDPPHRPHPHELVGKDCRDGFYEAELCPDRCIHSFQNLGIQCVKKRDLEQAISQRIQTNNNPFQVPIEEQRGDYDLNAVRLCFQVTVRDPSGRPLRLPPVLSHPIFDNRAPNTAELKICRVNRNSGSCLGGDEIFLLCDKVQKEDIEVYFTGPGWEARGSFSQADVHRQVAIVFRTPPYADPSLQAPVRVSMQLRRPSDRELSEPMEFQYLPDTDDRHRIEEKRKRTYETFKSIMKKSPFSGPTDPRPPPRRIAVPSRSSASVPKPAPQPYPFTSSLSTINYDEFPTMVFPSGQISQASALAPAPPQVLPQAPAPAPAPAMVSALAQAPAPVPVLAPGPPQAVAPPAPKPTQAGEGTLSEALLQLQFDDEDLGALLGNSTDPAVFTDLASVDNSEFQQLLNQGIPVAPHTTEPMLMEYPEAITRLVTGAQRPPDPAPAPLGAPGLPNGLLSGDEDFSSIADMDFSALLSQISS

The assay concerns the target adiponectin (human (endogenous in human cardiomyocytes)) (UniProt Q15848). In words: co-IP; 300 μg nuclear protein from human cardiomyocytes (with or without ET-1 for 1 h); immunoprecipitated with antibodies against adiponectin or control mouse IgG at 4°C overnight, protein A/G-Sepharose beads, washed three times with IP buffer; immunoblotted for p65, PPARα and adiponectin.

No constants are given. Whether binding was seen depends on the method and setting. In cells and extracts the contact can be indirect. Some results given as binding are weak or reduced against the parent protein; the word gives no strength.

In the case of p65 (from UniProt Q04206 1-551), the binding result is reported as “binds”.
